Measured values reported in PubChem BioAssay AID192 (DTP/NCI, 2004).
The list is a part of this screen's results and no random one: it gathers tests that were run many times, whatever their T/C, doses with no T/C, and many T/C values between a quarter and a half above the control. Other doses and runs of a compound stand elsewhere. T/C: endpoint of the treated group in % of that of the vehicle group. Some doses have a count of surviving animals in place of a T/C: the source holds a T/C of zero for them, seemingly a mark for toxic or unscored doses. Some survivor counts are full or nearly so, which does not show that the dose was tolerated: the source hardly ever lists a survival T/C far under the control, and the zero likely stands for such cases as well. Survivors were counted at the toxicity check, usually on the fifth day, unless a day is given; later deaths do not show. Schedules are NCI's codes, read here as Q, the interval in days (D) or hours (H), X, the number of doses. Some entries hold several experiments; the values are given in rising order. Signs of the kind (2×) say how often a value occurs here. Where survival is the endpoint, the PubChem record calls one and a half times the control and up active, and a quarter to a half above the control has no call in these data; cut-offs in other NCI protocols can differ. Some T/C values carry the count of animals alive at the toxicity check (mostly the fifth day); without a count, all were alive then.

Tested on: BDF1 mice, B16 melanoma ip, median survival T/C
Experiment: NCI In Vivo Anticancer Drug Screen. Data for tumor model B16 Melanoma (intraperitoneal) in B6D2F1 (BDF1) mice
Settings: T/C endpoint: median survival time, higher T/C = longer survival
How it was run: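 Transplantable tumor model; survival or tumor size measured; reported as T/C, treated over vehicle control.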

[1] = dose: 4.0 mg/kg/injection, schedule: Q01DX009 (ip), vehicle: saline
[2] = dose: 20.0 mg/kg/injection, schedule: Q01DX001 (ip), vehicle: saline
[3] = dose: 24.0 mg/kg/injection, schedule: Q01DX001 (ip), vehicle: water

**Q.** Which results are given for `COc1cccc2c1C(=O)c1c(O)c3c(c(O)c1C2=O)C[C@@](O)(C(=O)CO)C[C@@H]3OC1CC(N)C(O)C(C)O1` (stereo not given in full)?
**A.** T/C (dose: 4.0 mg/kg/injection, schedule: Q01DX001 (ip), vehicle: saline, evaluated on day 8): 203 % of control; T/C (dose: 4.0 mg/kg/injection, schedule: Q01DX001 (ip), vehicle: saline, evaluated on day 10): 140 % of control; T/C (dose: 4.0 mg/kg/injection, schedule: Q01DX001 (ip), vehicle: water, evaluated on day 40): 132 % of control; T/C (dose: 4.0 mg/kg/injection, schedule: Q01DX001 (ip), vehicle: water, evaluated on day 45): 122, 126, 169 % of control [7 of 10 alive]; T/C (dose: 4.0 mg/kg/injection, schedule: Q01DX001 (ip), vehicle: water, evaluated on day 50): 160 % of control; T/C (dose: 4.0 mg/kg/injection, schedule: Q01DX001 (ip), vehicle: water, evaluated on day 60): 123, 142, 160, 161, 162, 180, 182, 192 [9 of 10 alive], 197, 203, 211, 227, 233, 248, 250 (2×), 252, 256, 260, 273, 280, 283, 284, 285, 287, 288 (2×), 289, 293, 300, 308, 314, 315, 319, 322, 325 % of control (2×); T/C [1]: 87, 142, 288, 297 % of control; survivor count [1]: 9 of 10 and 10 of 10 (2×); survivor count (dose: 4.0 mg/kg/injection, schedule: Q01DX009 (ip), vehicle: water): 10 of 10 and 8 of 8; T/C (dose: 4.0 mg/kg/injection, schedule: Q04DX003 (ip), vehicle: saline, evaluated on day 8): 185 % of control; T/C (dose: 4.0 mg/kg/injection, schedule: Q04DX003 (ip), vehicle: saline, evaluated on day 20): 118 % of control [2 of 4 alive]; T/C (dose: 4.0 mg/kg/injection, schedule: Q04DX003 (ip), vehicle: saline, evaluated on day 60): 152 [9 of 10 alive], 170, 183 [9 of 10 alive], 260 % of control (2×); T/C (dose: 4.8 mg/kg/injection, schedule: Q01DX001 (ip), vehicle: saline): 145 and 147 % of control; T/C (dose: 4.8 mg/kg/injection, schedule: Q04DX003 (ip), vehicle: water, evaluated on day 60): 141 (2×), 197, 285 % of control; T/C (dose: 4.8 mg/kg/injection, schedule: Q04DX003 (ip), vehicle: water, evaluated on day 75): 191 and 365 % of control; T/C (dose: 5.0 mg/kg/injection, schedule: Q01DX001 (ip), vehicle: saline): 108, 132, 153, 287 % of control; T/C (dose: 6.0 mg/kg/injection, schedule: Q01DX001 (ip), vehicle: saline): 145 % of control; T/C (dose: 6.0 mg/kg/injection, schedule: Q01DX001 (ip), vehicle: water, evaluated on day 45): 234 % of control; T/C (dose: 6.0 mg/kg/injection, schedule: Q01DX001 (ip), vehicle: water, evaluated on day 60): 113, 222, 277, 287, 306 % of control; T/C (dose: 6.0 mg/kg/injection, schedule: Q01DX001 (ip), vehicle: water, evaluated on day 65): 144 and 334 % of control; T/C (dose: 6.0 mg/kg/injection, schedule: Q01DX001 (ip), vehicle: water, evaluated on day 75): 142 and 249 % of control; T/C (dose: 6.0 mg/kg/injection, schedule: Q04DX003 (ip), vehicle: saline): 147 % of control; T/C (dose: 7.5 mg/kg/injection, schedule: Q01DX001 (ip), vehicle: water, evaluated on day 50): 103 % of control; T/C (dose: 7.5 mg/kg/injection, schedule: Q01DX001 (ip), vehicle: water, evaluated on day 60): 141, 283, 308 % of control; T/C (dose: 8.0 mg/kg/injection, schedule: Q01DX001 (ip), vehicle: saline, evaluated on day 1): 300 % of control; T/C (dose: 8.0 mg/kg/injection, schedule: Q01DX001 (ip), vehicle: saline, evaluated on day 5): 139, 150, 271 % of control; T/C (dose: 8.0 mg/kg/injection, schedule: Q01DX001 (ip), vehicle: saline, evaluated on day 6): 300 % of control; T/C (dose: 8.0 mg/kg/injection, schedule: Q01DX001 (ip), vehicle: saline, evaluated on day 8): 190 % of control; T/C (dose: 8.0 mg/kg/injection, schedule: Q01DX001 (ip), vehicle: saline, evaluated on day 10): 153 % of control; T/C (dose: 8.0 mg/kg/injection, schedule: Q01DX001 (ip), vehicle: water, evaluated on day 40): 150 % of control; T/C (dose: 8.0 mg/kg/injection, schedule: Q01DX001 (ip), vehicle: water, evaluated on day 45): 138, 156 [9 of 10 alive], 176 % of control [8 of 10 alive]; T/C (dose: 8.0 mg/kg/injection, schedule: Q01DX001 (ip), vehicle: water, evaluated on day 50): 176 % of control; T/C (dose: 8.0 mg/kg/injection, schedule: Q01DX001 (ip), vehicle: water, evaluated on day 60): 144, 154, 156, 162, 165, 198, 201 [9 of 10 alive], 204, 209, 210, 225, 227, 242, 253, 258, 273, 281, 283 (2×), 285, 287, 288, 288 [9 of 10 alive], 289 (2×), 290, 293, 297, 300 (2×), 303, 304, 308, 309, 321 [9 of 10 alive], 325, 327 % of control; survivor count (dose: 8.0 mg/kg/injection, schedule: Q01DX009 (ip), vehicle: saline): 10 of 10; survivor count (dose: 8.0 mg/kg/injection, schedule: Q04DX003 (ip), vehicle: saline): 10 of 10; T/C (dose: 8.0 mg/kg/injection, schedule: Q04DX003 (ip), vehicle: water, evaluated on day 60): 86 and 91 % of control; T/C (dose: 8.0 mg/kg/injection, schedule: Q04DX003 (ip), vehicle: water, evaluated on day 75): 200 % of control; survivor count (dose: 8.0 mg/kg/injection, schedule: Q04DX003 (ip), vehicle: water): 10 of 10 (2×) and 7 of 7; T/C (dose: 10.0 mg/kg/injection, schedule: Q01DX001 (ip), vehicle: saline): 111, 180, 182, 287 % of control; T/C (dose: 10.0 mg/kg/injection, schedule: Q01DX001 (ip), vehicle: water, evaluated on day 60): 127 [7 of 8 alive] and 303 % of control; T/C (dose: 10.0 mg/kg/injection, schedule: Q01DX001 (ip), vehicle: water, evaluated on day 65): 184 and 269 % of control; T/C (dose: 10.0 mg/kg/injection, schedule: Q01DX001 (ip), vehicle: water, evaluated on day 75): 161 and 210 % of control; T/C (dose: 12.0 mg/kg/injection, schedule: Q01DX001 (ip), vehicle: saline, evaluated on day 5): 271 % of control; T/C (dose: 12.0 mg/kg/injection, schedule: Q01DX001 (ip), vehicle: saline, evaluated on day 8): 228 % of control; T/C (dose: 12.0 mg/kg/injection, schedule: Q01DX001 (ip), vehicle: saline, evaluated on day 10): 153 % of control; T/C (dose: 12.0 mg/kg/injection, schedule: Q01DX001 (ip), vehicle: saline, evaluated on day 99): 135 and 412 % of control; T/C (dose: 12.0 mg/kg/injection, schedule: Q01DX001 (ip), vehicle: water, evaluated on day 45): 234 % of control; T/C (dose: 12.0 mg/kg/injection, schedule: Q01DX001 (ip), vehicle: water, evaluated on day 60): 196, 277, 306 % of control; survivor count (dose: 13.0 mg/kg/injection, schedule: Q04DX003 (ip), vehicle: saline): 9 of 10; T/C (dose: 15.0 mg/kg/injection, schedule: Q01DX001 (ip), vehicle: water, evaluated on day 50): 149 % of control; T/C (dose: 15.0 mg/kg/injection, schedule: Q01DX001 (ip), vehicle: water, evaluated on day 60): 283 and 307 % of control; survivor count (dose: 15.0 mg/kg/injection, schedule: Q01DX001 (ip), vehicle: water): 9 of 10; T/C (dose: 16.0 mg/kg/injection, schedule: Q01DX001 (ip), vehicle: saline, evaluated on day 1): 42 % of control; T/C (dose: 16.0 mg/kg/injection, schedule: Q01DX001 (ip), vehicle: saline, evaluated on day 6): 42 % of control; T/C (dose: 16.0 mg/kg/injection, schedule: Q01DX001 (ip), vehicle: saline, evaluated on day 8): 193 % of control [6 of 8 alive]; T/C (dose: 16.0 mg/kg/injection, schedule: Q01DX001 (ip), vehicle: saline, evaluated on day 10): 106 % of control [8 of 9 alive]; T/C (dose: 16.0 mg/kg/injection, schedule: Q01DX001 (ip), vehicle: water, evaluated on day 40): 156 % of control; T/C (dose: 16.0 mg/kg/injection, schedule: Q01DX001 (ip), vehicle: water, evaluated on day 45): 136 % of control; T/C (dose: 16.0 mg/kg/injection, schedule: Q01DX001 (ip), vehicle: water, evaluated on day 50): 190 % of control; T/C (dose: 16.0 mg/kg/injection, schedule: Q01DX001 (ip), vehicle: water, evaluated on day 60): 92, 94, 95, 96 [9 of 10 alive], 108, 120 [9 of 10 alive], 135, 141, 156, 173 [9 of 10 alive], 180, 188, 235, 240, 242 [9 of 10 alive], 273 [9 of 10 alive], 285, 287, 294, 303, 304, 306, 307, 323 [9 of 10 alive], 327 % of control; survivor count (dose: 16.0 mg/kg/injection, schedule: Q01DX001 (ip), vehicle: water): 4 of 10, 6 of 10, 7 of 10, 8 of 10, 9 of 10, 10 of 10 (3×); survivor count (dose: 16.0 mg/kg/injection, schedule: Q01DX009 (ip), vehicle: saline): 7 of 10; survivor count (dose: 16.0 mg/kg/injection, schedule: Q04DX003 (ip), vehicle: saline): 7 of 10 and 10 of 10; T/C (dose: 16.7 mg/kg/injection, schedule: Q01DX001 (ip), vehicle: water, evaluated on day 60): 102 % of control [7 of 8 alive]; T/C (dose: 16.7 mg/kg/injection, schedule: Q01DX001 (ip), vehicle: water, evaluated on day 65): 167 and 264 % of control; T/C (dose: 16.7 mg/kg/injection, schedule: Q01DX001 (ip), vehicle: water, evaluated on day 75): 107 [8 of 10 alive] and 142 % of control; survivor count (dose: 16.7 mg/kg/injection, schedule: Q01DX001 (ip), vehicle: water): 8 of 8; T/C [2]: 133, 201, 287 % of control; survivor count [2]: 9 of 10; T/C [3]: 129 [9 of 10 alive] and 306 % of control; survivor count [3]: 7 of 10 and 7 of 8; survivor count (dose: 30.0 mg/kg/injection, schedule: Q01DX001 (ip), vehicle: water): 3 of 10, 5 of 10, 8 of 10; survivor count (dose: 32.0 mg/kg/injection, schedule: Q01DX001 (ip), vehicle: water): 2 of 10; survivor count (dose: 40.0 mg/kg/injection, schedule: Q01DX001 (ip), vehicle: saline): 2 of 10, 5 of 10, 10 of 10; survivor count (dose: 64.0 mg/kg/injection, schedule: Q01DX001 (ip), vehicle: water): 0 of 10 and 1 of 10; survivor count (dose: 80.0 mg/kg/injection, schedule: Q01DX001 (ip), vehicle: saline): 0 of 10 and 10 of 10; T/C (dose: 864.0 micrograms/kg/injection, schedule: Q01DX004 (ip), vehicle: other): 130 % of control [9 of 10 alive]; T/C (dose: 1440.0 micrograms/kg/injection, schedule: Q01DX004 (ip), vehicle: other): 131 and 148 % of control; T/C (dose: 2400.0 micrograms/kg/injection, schedule: Q01DX004 (ip), vehicle: other): 126 and 147 % of control; survivor count (dose: 6670.0 micrograms/kg/injection, schedule: Q01DX004 (ip), vehicle: other): 10 of 10
